Assay in all cases: SRB antiproliferation assay
Holding throughout (assay type): cell-based

One experiment deals with A549. The following applies: Homo sapiens, 48 h, read-out: Antiproliferative activity (IC50) A549. The protocol:
(§1) To determine the ability of test compounds to affect the growth of adherent cells, the following cancer cell lines were used: A549 (Bioresource Collection and Research Centre, Taiwan, 60074), HepG2 (BCRC 60025), MCF7 (BCRC 60436), U87MG (BCRC 60360), and H2228 (ATCC CRL-5935). Cells were maintained at 37 °C in a 5% CO2, humidified incubator. Culture media were: RPMI-1640 for A549 and H2228 cells; Dulbecco’s modified Eagle’s medium for HepG2 and MCF7 cells; 90% Minimum essential medium Eagle with 2 mM L-glutamine and Earle’s BSS, 1.5 g/L sodium bicarbonate, 0.1 mM non-essential amino acids, 1.0 mM sodium pyruvate, and 10% foetal bovine serum for U87MG cells. Cells were seeded in 96-well plates at a density of 5 × 10^3 cells/well with appropriate control medium. They were treated for 48 h with test compounds at various concentration in medium containing 5% serum. Antiproliferative activity was determined by sulforhodamine B (SRB) assay. Cells treated with vehicle were used as control (100%). Antiproliferative activity was reported as percentage decrease of optical density at 510 nm for the SRB-protein complex. IC50 values were obtained on the basis of relative antiproliferation under different concentrations of compounds by regression analysis. Cell viability of compound combination was performed using MTS assay using CellTiter 96® AQueous One Solution Cell Proliferation Assay kit (Promega). In brief, 1000 cells were seeded in each well in 96-well plate and incubated for overnight. DMSO or indicated compounds were added and incubated for another 3 days. 20 µL of MTS reagent was added and incubated for 2 h followed by recording the optical density at 490 nm.

In the next experiment the test system is H2228. The following applies: Homo sapiens, NCI-H2228, 48 h, ALK-addicted cells, read-out: Antiproliferative activity (IC50) H2228. As to the method: as §1
For another experiment, the system named is HepG2. The following applies: Homo sapiens, 48 h, read-out: Antiproliferative activity (IC50) HepG2. The protocol:
as §1

The next experiment relates to MCF7. The note with it: Homo sapiens, 48 h, read-out: Antiproliferative activity (IC50) MCF7. The protocol: as §1
A further experiment relates to U87MG. The note with it: Homo sapiens, U-87 MG, 48 h, read-out: Antiproliferative activity (IC50) U87MG. The protocol: as §1

On to `O=C(CCCCCCC(=O)Nc1ccccc1)NO` [SAHA, reference compound], for which the IC50 in the experiment on A549 was 3.42 ± 0.51 µM; with H2228, 3.1 ± 0.57 µM; in the experiment on HepG2 it was 3.38 ± 0.56 µM; in the experiment on MCF7 it was 4.17 ± 0.43 µM; with U87MG, 2090 ± 720 nM.
